Drawing on PMC3103643 (Journal of natural products, 2011), this text covers IC50 for one compound.

This assay deals with HT-29 cells. Nature of the assay: Mitochondrial transmembrane potential. Format: cell-based. Conditions: Homo sapiens, HT-29, read-out: MTP (mitochondrial transmembrane potential) IC50 (positive control), HT-29 cells, positive control.

Each structure is given as a SMILES string.

In general, IC50 refers to the concentration needed to halve the response being measured.

On to `CN[C@@H]1C[C@H]2O[C@@](C)([C@@H]1OC)n1c3ccccc3c3c4c(c5c6ccccc6n2c5c31)C(=O)NC4` [staurosporine], for which the IC50 was found to be 2 nM.
